From patent US20080124407A1, “INHIBITING CYP3A4 INDUCTION” (UNIVERSITY OF WASHINGTON, priority 2006, published 2008) come the findings set out here.

Protein sequences, listed by entry. Tags and fused reporters are not part of them. Lines headed by an entry give the natural chain unless they say otherwise; changes in a name come on top.
UniProt P04386: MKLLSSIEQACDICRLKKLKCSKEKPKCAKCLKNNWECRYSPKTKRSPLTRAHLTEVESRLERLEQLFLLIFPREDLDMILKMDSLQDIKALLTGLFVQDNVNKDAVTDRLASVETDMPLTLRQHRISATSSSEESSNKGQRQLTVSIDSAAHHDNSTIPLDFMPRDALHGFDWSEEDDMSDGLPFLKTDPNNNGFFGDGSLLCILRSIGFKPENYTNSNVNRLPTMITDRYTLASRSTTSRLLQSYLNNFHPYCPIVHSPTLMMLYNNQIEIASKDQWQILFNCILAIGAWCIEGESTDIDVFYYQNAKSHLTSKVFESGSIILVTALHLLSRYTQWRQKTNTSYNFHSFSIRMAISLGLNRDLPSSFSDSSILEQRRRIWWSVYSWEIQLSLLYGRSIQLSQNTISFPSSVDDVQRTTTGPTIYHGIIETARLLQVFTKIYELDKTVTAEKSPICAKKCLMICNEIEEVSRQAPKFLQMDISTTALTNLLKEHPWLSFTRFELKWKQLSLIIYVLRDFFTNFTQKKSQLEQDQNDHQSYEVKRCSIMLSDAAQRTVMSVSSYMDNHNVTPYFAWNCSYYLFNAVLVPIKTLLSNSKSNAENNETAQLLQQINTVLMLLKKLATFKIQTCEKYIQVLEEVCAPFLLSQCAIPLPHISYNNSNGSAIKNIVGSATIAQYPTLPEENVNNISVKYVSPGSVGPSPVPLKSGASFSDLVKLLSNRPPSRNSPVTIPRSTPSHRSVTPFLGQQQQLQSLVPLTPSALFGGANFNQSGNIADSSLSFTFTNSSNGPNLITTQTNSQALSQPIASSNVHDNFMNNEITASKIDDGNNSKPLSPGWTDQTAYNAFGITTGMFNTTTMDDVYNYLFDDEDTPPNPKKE

The target of assay [1] is T1, VP16-SXR (human) (UniProt O75469).
T1 sequence: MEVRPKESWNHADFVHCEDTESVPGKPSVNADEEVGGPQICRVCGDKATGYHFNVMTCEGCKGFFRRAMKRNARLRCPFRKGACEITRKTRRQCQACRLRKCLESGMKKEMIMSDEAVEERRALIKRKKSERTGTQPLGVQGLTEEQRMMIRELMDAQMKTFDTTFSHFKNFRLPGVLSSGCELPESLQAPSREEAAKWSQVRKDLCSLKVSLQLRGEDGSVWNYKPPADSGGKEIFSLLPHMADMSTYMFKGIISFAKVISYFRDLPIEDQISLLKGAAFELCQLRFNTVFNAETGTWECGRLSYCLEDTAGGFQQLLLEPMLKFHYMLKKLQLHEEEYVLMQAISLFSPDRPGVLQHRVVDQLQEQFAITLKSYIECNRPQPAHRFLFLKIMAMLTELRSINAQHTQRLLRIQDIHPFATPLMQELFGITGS
Briefly: mammalian two-hybrid in HepG2 cells (GAL4 reporter, VP16-SXR, GAL-PBP), with 10 µM rifampicin.

The target of assay [2] is T1, VP16-SXR (human). Briefly: mammalian two-hybrid in HepG2 cells (GAL4 reporter, VP16-SXR, GAL-SRC1), with 10 µM rifampicin.

These are yes or no findings as the source states them, for the method shown. Some results given as binding are weak or reduced against the parent protein; the word gives no strength.

With “GAL4 DNA-binding domain linked to the receptor interaction domains of peroxisome proliferator-activated receptor-binding protein (GAL-PBP) (from UniProt P04386 1-147; Q15648 560-700)”, the binding result with VP16-SXR (human) [1] was “binds”.

As to “GAL4 DNA-binding domain linked to the receptor interaction domains of steroid receptor coactivator-1 (GAL-SRC1) (from UniProt P04386 1-147; Q15788 595-780)”, in the assay with VP16-SXR (human) [2], the binding entry is listed as “binds”.
